Results deposited as PubChem BioAssay AID1259308 (NCATS, 2017)

Screen: 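Genes whose loss raises luciferase production in HEK293 cells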 (primary screen)
Cells: human HEK293 embryonic kidney cells stably expressing firefly luciferase (HEK-CMV-Luc2-Hygro)
Reagent: single siRNA against human genes, 0.8 pmol siRNA per well
Time to read-out: 72 h
Measured: 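Reporter luminescence and viable-cell signal on separate replicate plates, given as percent of non-targeting control and median/MAD z-scores, plus per-cell luciferase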
Reading the numbers: total luciferase, z-score and total luciferase, % of control: higher = more reporter protein produced
Active means: 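Active when the median/MAD z-score for overall luciferase is greater than 3; a gene was taken forward for validation with new siRNAs if at least two of its three siRNAs passed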
Calls: active = raised luciferase; inactive = no rise
Here is an unselected part of about 59,000 reagents. About 1,510 of them (2.6%) count as active. 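Calls use total luciferase alone and ignore viability, so some active siRNAs may act by altering cell number.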 The numbers tell different reagents against one gene apart. Further read-outs or replicates are left out here. No sequences are given here.

ATP2A3 #1 gave total luciferase, z-score -0.251; total luciferase, % of control 76.9; inactive.
ATP2A3 #2 scored total luciferase, z-score 0.0116; total luciferase, % of control 82.1; inactive.
After knock-down of ATP2A3 #3, the screen gave total luciferase, z-score 0.286; total luciferase, % of control 87.6; inactive.
Against CBX2 #1, the entry reads total luciferase, z-score 2.48; total luciferase, % of control 131; inactive.
After knock-down of CBX2 #2, the record shows total luciferase, z-score 1.05; total luciferase, % of control 103; inactive.
With knock-down of CBX2 #3, the screen gave total luciferase, z-score 0.263; total luciferase, % of control 87.1; inactive.
Knock-down of SF3A2P1 #1 resulted in: total luciferase, z-score 3.18; total luciferase, % of control 145; active.
Against SF3A2P1 #2 the deposit lists total luciferase, z-score 1.72; total luciferase, % of control 116; inactive.
For SF3A2P1 #3, the entry reads total luciferase, z-score 1.15; total luciferase, % of control 105; inactive.

Part of the list above in another layout:
gene,siRNA no.,"total luciferase, z-score","total luciferase, % of control",Call
CBX2,1,2.48,131,inactive
CBX2,2,1.05,103,inactive
CBX2,3,0.263,87.1,inactive

Further reagents:
With knock-down of COPS5 #1, the record shows total luciferase, z-score 0.297; total luciferase, % of control 87.8; inactive.
Against COPS5 #2 the deposit lists total luciferase, z-score -0.861; total luciferase, % of control 64.8; inactive.
With knock-down of COPS5 #3 the results were total luciferase, z-score -0.517; total luciferase, % of control 71.6; inactive.
After knock-down of SPANXN2 #1 the results were total luciferase, z-score -0.66; total luciferase, % of control 68.8; inactive.
Silencing of SPANXN2 #2 gave: total luciferase, z-score 0.0649; total luciferase, % of control 83.2; inactive.
SPANXN2 #3 gave total luciferase, z-score 1.48; total luciferase, % of control 111; inactive.
With knock-down of PGBD4 #1 the results were total luciferase, z-score 0.381; total luciferase, % of control 89.5; inactive.
PGBD4 #2 showed total luciferase, z-score -1.11; total luciferase, % of control 59.8; inactive.
PGBD4 #3 scored total luciferase, z-score 1.11; total luciferase, % of control 104; inactive.
Silencing of FER1L5 #1 resulted in: total luciferase, z-score 0.449; total luciferase, % of control 90.8; inactive.
For FER1L5 #2 the deposit lists total luciferase, z-score 0.143; total luciferase, % of control 84.7; inactive.
For FER1L5 #3 the deposit lists total luciferase, z-score -0.107; total luciferase, % of control 79.8; inactive.
